In PMC7819943, “Rice protein-binding microarrays: a tool to detect cis-acting elements near promoter regions in rice” one finds binding signal data, which are given here for 54 sequences.

Chains of the proteins cited; added tags and fusions are not shown.
UniProt Q0JBA9, entry or part of it: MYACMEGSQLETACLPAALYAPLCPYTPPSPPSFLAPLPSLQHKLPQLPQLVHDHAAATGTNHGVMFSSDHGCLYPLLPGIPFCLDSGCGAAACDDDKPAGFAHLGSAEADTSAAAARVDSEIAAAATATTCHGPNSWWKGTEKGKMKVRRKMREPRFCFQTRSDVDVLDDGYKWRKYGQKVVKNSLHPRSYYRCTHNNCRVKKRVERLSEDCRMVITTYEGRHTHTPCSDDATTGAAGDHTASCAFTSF

The list shows a part of the results.

This assay addresses OsWRKY34 (Oryza sativa, UniProt Q0JBA9 1-250). The experiment in a line: protein-binding microarray (RPBM); PBS, 2% BSA, 51.3 ng/ul salmon testes DNA, 50 uM zinc acetate, 200 nM TF, 25 C, 1 h; high values mean tight binding. Conditions: protein: recombinant; tags: N-terminal polyhistidine and DsRed monomer fusion (pET32a); label: CyDye5-dUTP incorporated in the synthesized complementary strand; 3' TTTTT single-stranded linker to array surface; dsDNA, one strand shown. The procedure, abridged: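 Polyhistidine-tagged DsRed fusions of transcription factors, joined at the N-terminus, were expressed in E. coli BL21-CodonPlus and isolated on Ni–NTA. They were incubated at 200 nM for 1 h at 25 °C on a custom Agilent array, double-stranded and BSA-blocked, in PBS with 2% BSA, salmon testes DNA and 50 µM zinc acetate. The binding signal is per-feature fluorescence intensity (arbitrary units) read on an Axon 4000B scanner after washing.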
Turning to “AAAAGCAAAAGCAAAAGAAACACGTCCTTATTCCTCTCTCCGGAGTCACCTAGTGCAG”, the binding signal is 8210 fluorescence intensity (a.u.).
With “TTTCATGCGTGACTTATCTTTTTAATTTTTTTTATATTTTCGGAGTCACCTAGTGCAG” the figure was 8150 fluorescence intensity (a.u.); with “TGGTGTTGTGTATAATATTAGTAGGAGGGGAGCCTTGGGGCGGAGTCACCTAGTGCAG”, 10900 fluorescence intensity (a.u.); with “CCTGTCTGCTTGGCCTCACGGTGTCTCTGCGCGAATCAATCGGAGTCACCTAGTGCAG”, 11400 fluorescence intensity (a.u.).
With “ACGCCCTCGCGCACGACGTCGCCGCTCACGTCAACGAGCTCGGAGTCACCTAGTGCAG” the figure was 8500 fluorescence intensity (a.u.).
As to “AGTATTAAGATAGCTGCTCGGGTTTTTGGTCAACAATTCACGGAGTCACCTAGTGCAG”, the binding signal was 10600 fluorescence intensity (a.u.).
The same measure for “TTGACCTCGAGTCCTGCTTGGCTTTTTGTGGGCGACACCGCGGAGTCACCTAGTGCAG”: 9720 fluorescence intensity (a.u.); for “AGTTAAAACCGCTACTCCACTCCTCCCATTGCATAATTTTCGGAGTCACCTAGTGCAG”: 9400 fluorescence intensity (a.u.); for “GCGCGGCGGCGGTGGGGTGGTAGTGGTGGTGGGTGGAATGCGGAGTCACCTAGTGCAG”: 13500 fluorescence intensity (a.u.).
The same measure for “TGGGGTTATTATAGTTGGGCAGCGCTGACCGTGAGTCCGTCGGAGTCACCTAGTGCAG”: 10600 fluorescence intensity (a.u.); for “CAGTTGGCCTGTTTGTTTGTTGGTTGTGATTAATCTGTGACGGAGTCACCTAGTGCAG”: 18800 fluorescence intensity (a.u.).
Take “AGTACTCTCTCTTTGTATTAAATGAATTCTGAAGGATTTTCGGAGTCACCTAGTGCAG”: the binding signal was 8970 fluorescence intensity (a.u.).
With “CCGCCCATGTCCACCGCCCACCGCCGGGCCGCCGCCTCCCCGGAGTCACCTAGTGCAG”, the binding signal was 8240 fluorescence intensity (a.u.).
With “GGTATTTTTCTTTTATTTTTTATATTACTAGAAAAATACCCGGAGTCACCTAGTGCAG” the figure was 11900 fluorescence intensity (a.u.).
With “CTTCAGCAGCGAAGCCGGTGACAGTCACGCTTTTATTTACCGGAGTCACCTAGTGCAG” the figure was 8620 fluorescence intensity (a.u.); with “GTCCGCTCCCGTTCGTTTTTTGGCGGCCGAGGCCCAACCCCGGAGTCACCTAGTGCAG”, 9000 fluorescence intensity (a.u.).
With “GCCTTAATCATGCACTTGTTGTCTACTCCAATCGTATAGTCGGAGTCACCTAGTGCAG” the figure was 9970 fluorescence intensity (a.u.); with “GCTGCCGTGGAGATTCTTGAGGAGGTTGGTGGTGGGGATGCGGAGTCACCTAGTGCAG”, 8150 fluorescence intensity (a.u.).
Regarding “TCCTCTACTTAACACCAAAGCCTCGGTCTGTGTCTGTCCGCGGAGTCACCTAGTGCAG”, the binding signal is 8460 fluorescence intensity (a.u.).
With “ACGTGTAGCACGCGCTGGACTTATCTGCTTTGCTCGTTTCCGGAGTCACCTAGTGCAG” the figure was 10600 fluorescence intensity (a.u.).
With “GTCTAACTGCCAACATCTTCATATGGCCCATCAATGCTTTCGGAGTCACCTAGTGCAG” the figure was 10700 fluorescence intensity (a.u.); with “AGCCAACCACACACAATGAACCATACCACAGTTACCACAGCGGAGTCACCTAGTGCAG”, 10100 fluorescence intensity (a.u.); with “ACGCGATCTCTCGGCCCATCAAGCACTCCACCTCTCACCACGGAGTCACCTAGTGCAG”, 8270 fluorescence intensity (a.u.).
Turning to “CCCTACATCACTCACTTCTACCTACTTTCTTAATAACCGTCGGAGTCACCTAGTGCAG”, the binding signal is 8690 fluorescence intensity (a.u.).
The same measure for “TCCTCGCCTCCGAGCTCGACTTGGTCATCGTCTTCGCCTCCGGAGTCACCTAGTGCAG”: 9970 fluorescence intensity (a.u.).
The same measure for “TCTATATTTGTTCGATATAAGTATTAGTAATGTATTCTTGCGGAGTCACCTAGTGCAG”: 8380 fluorescence intensity (a.u.); for “TTTTTTATTAATAGTCAAAATTAAAAATGTTTGACTTAACCGGAGTCACCTAGTGCAG”: 8270 fluorescence intensity (a.u.).
The same measure for “CACCCTATTCTCTCTCTAGCCGGCAGCCACCCAAAATTTCCGGAGTCACCTAGTGCAG”: 10600 fluorescence intensity (a.u.).
With “ATTGTATTCCTACTTGGACTCTTATTTTCTTTTCTAATTTCGGAGTCACCTAGTGCAG”, the binding signal was 10300 fluorescence intensity (a.u.).
With “ACTGGTTGCATGCTTCTTTCGTACGAAGTGGTGAGTGGTGCGGAGTCACCTAGTGCAG” the figure was 8670 fluorescence intensity (a.u.).
As to “GCATATCTCTCGCCAACTACTGGCCCATGCTTGCATGCAACGGAGTCACCTAGTGCAG”, the binding signal is 9840 fluorescence intensity (a.u.).
The same measure for “GCCTAATCGTTTTCTTCGCGTTCTTAGACTGTAATTAAGCCGGAGTCACCTAGTGCAG”: 8180 fluorescence intensity (a.u.); for “GCCTCCTGTCGTTCTATATATTCCCTTGGCCATCGTCTCTCGGAGTCACCTAGTGCAG”: 14100 fluorescence intensity (a.u.); for “AGTTTTTGTGTACAACGTTTGACTGTCCGTCTTATATGAACGGAGTCACCTAGTGCAG”: 8810 fluorescence intensity (a.u.).
With “GCTTTGTCGGATGCCCACATTTTTCCCATTGATAATATTACGGAGTCACCTAGTGCAG” the figure was 8610 fluorescence intensity (a.u.); with “TACCGACATGTTTCCGTCCGTATTGTTCCGTTTCCGGTTTCGGAGTCACCTAGTGCAG”, 9170 fluorescence intensity (a.u.); with “ACTCCTCTGCATGCTTTTTTTTTCCCTTCAGTTTCAGTTGCGGAGTCACCTAGTGCAG”, 11200 fluorescence intensity (a.u.).
The same measure for “CTCCACACGTGTCCCCGCGCGAGCTCATCTCGCGCGCATTCGGAGTCACCTAGTGCAG”: 8680 fluorescence intensity (a.u.); for “TGGAGGTGGGGAGGATGCGGGAGAGGGAGGTGATGATGGGCGGAGTCACCTAGTGCAG”: 8790 fluorescence intensity (a.u.); for “ATTCCTTTTACTTTTCTTTATTTTTTTAAAATTTGCATGTCGGAGTCACCTAGTGCAG”: 8560 fluorescence intensity (a.u.).
“CATGCGTTCTTCCCCGCGCCTCTGCAGTTCCGCACATCGCCGGAGTCACCTAGTGCAG”: the binding signal was 11800 fluorescence intensity (a.u.).
Turning to “GGCTGCTATATTGACCTTGCTCTTATTCCTTCATTCAATTCGGAGTCACCTAGTGCAG”, the binding signal is 10500 fluorescence intensity (a.u.).
With “GCTCGCCACTGCTGCCGCTTCTCCTCGTCCTGTACAAAACCGGAGTCACCTAGTGCAG” the figure was 10400 fluorescence intensity (a.u.); with “TTAGTTGTTTGACTTTTTTTCATAGTTAAACCTTTTAAAGCGGAGTCACCTAGTGCAG”, 15300 fluorescence intensity (a.u.); with “TGACAAAATCCGGCGCGGGCTTGAGATTGATATTTTTTTCCGGAGTCACCTAGTGCAG”, 8100 fluorescence intensity (a.u.).
As for “TATATATATATATATATATATAGGCTTTTTAATTCCTCGCCGGAGTCACCTAGTGCAG”, the binding signal was 8580 fluorescence intensity (a.u.).
The same measure for “GCCGTGTTCATGATATGGTGCTCGATATGGTCCGTTCATTCGGAGTCACCTAGTGCAG”: 9100 fluorescence intensity (a.u.); for “TAGTTTGATGCCTATCCAAAATTTGGTAGTGTTTTTCTAACGGAGTCACCTAGTGCAG”: 8970 fluorescence intensity (a.u.).
The same measure for “CTTCCTGCCCGCAAACTAAATCCCACCGGCCACCGCCTCTCGGAGTCACCTAGTGCAG”: 8830 fluorescence intensity (a.u.); for “CTATTTCTTTTGTCCTTCATACAGAGGGTGTGTTTAGTTGCGGAGTCACCTAGTGCAG”: 8770 fluorescence intensity (a.u.); for “CGGTTTGGGCTCTTTTGGCTGTTCCATGGCGACGAGGCGCCGGAGTCACCTAGTGCAG”: 8320 fluorescence intensity (a.u.).
The same measure for “CTTCGTTTTTTAATAGATGACGCCGTTGACTTTTTCTCACCGGAGTCACCTAGTGCAG”: 22000 fluorescence intensity (a.u.); for “GTTGCGGATGCGGAAGCAGCGCCACCTCGTTGACCTCACCCGGAGTCACCTAGTGCAG”: 9210 fluorescence intensity (a.u.); for “AGCAGGTATTTTTTTTCTTTCCTCCAATTTACCACGCCCTCGGAGTCACCTAGTGCAG”: 8260 fluorescence intensity (a.u.).
